# In the supplement of paper PMC4604168 (melanoma cell lines):
# Some of the results follow. Single values are uncertain, as repeats are few or missing.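 Cells were imaged in 1,536-well plates, and nuclei stained with an antibody against cleaved PARP were counted against all DNA-stained nuclei to give the apoptosis fraction. Screening doses were chosen to leave most cells alive, and resting and induced cleaved-PARP levels differ strongly between cell lines.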
# What was measured:
# Test in all cases: cleaved PARP positive nuclei fraction relative to DMSO control; melanoma cells; higher = more apoptosis
# Conditions in all cases: library dose: low library concentration; 72 h
# MZ2-MEL = tested on: MZ2-MEL
# MeWo = tested on: MeWo
# RPMI7951 = tested on: RPMI7951
# RVH-421 = tested on: RVH-421
# SkMel28 = tested on: SkMel28
# SkMel2 = tested on: SkMel2
# SkMel30 = tested on: SkMel30
# SkMel5 = tested on: SkMel5
# UACC257 = tested on: UACC257
# UACC62 = tested on: UACC62
# WM115 = tested on: WM115
# WM1716 = tested on: WM1716
# WM1745 = tested on: WM1745
# WM3526 = tested on: WM3526
# WM3619 = tested on: WM3619
# WM451Lu = tested on: WM451Lu
Compound,cleaved PARP positive nuclei fraction (MZ2-MEL) [%],cleaved PARP positive nuclei fraction (MeWo) [%],cleaved PARP positive nuclei fraction (RPMI7951) [%],cleaved PARP positive nuclei fraction (RVH-421) [%],cleaved PARP positive nuclei fraction (SkMel28) [%],cleaved PARP positive nuclei fraction (SkMel2) [%],cleaved PARP positive nuclei fraction (SkMel30) [%],cleaved PARP positive nuclei fraction (SkMel5) [%],cleaved PARP positive nuclei fraction (UACC257) [%],cleaved PARP positive nuclei fraction (UACC62) [%],cleaved PARP positive nuclei fraction (WM115) [%],cleaved PARP positive nuclei fraction (WM1716) [%],cleaved PARP positive nuclei fraction (WM1745) [%],cleaved PARP positive nuclei fraction (WM3526) [%],cleaved PARP positive nuclei fraction (WM3619) [%],cleaved PARP positive nuclei fraction (WM451Lu) [%]
"C[C@]1(O)C[C@@H](c2nc(-c3ccc4ccc(-c5ccccc5)nc4c3)c3c(N)nccn32)C1 + COc1ccc2c(c1)CCC1C2CCC2(C)C(NCCCCCCN3C(=O)C=CC3=O)CCC12 [U73122] (first compound 0.4 µM, partner dose 0.4 µM)",185,45.1,98.4,181,206,89.7,44,170,146,1200,102,66.9,102,106,128,485
"CN(c1ncccc1CNc1nc(Nc2ccc3c(c2)CC(=O)N3)ncc1C(F)(F)F)S(C)(=O)=O + CN(C)S(=O)(=O)c1ccc2c(c1)/C(=C/c1cc3c([nH]1)CCCC3)C(=O)N2 [SU6656] (first compound 0.08 µM, partner dose 0.4 µM)",131,73.2,145,139,255,65.4,73.2,97.1,69.6,121,394,61.7,112,48.2,98.5,39.2
"NC1(c2ccc(-c3nc4ccn5c(=O)[nH]nc5c4cc3-c3ccccc3)cc2)CCC1 + COc1cc2c(Oc3ccc4[nH]c(C)cc4c3F)ncnc2cc1OCCCN1CCCC1 [cediranib] (first compound 0.4 µM, partner dose 0.4 µM)",58.9,63.4,35.6,128,36.8,94.8,76,79.8,101,178,104,111,96.6,35.6,90.8,448
"COc1ccc(C2=N[C@@H](c3ccc(Cl)cc3)[C@@H](c3ccc(Cl)cc3)N2C(=O)N2CCNC(=O)C2)c(OC(C)C)c1 [Nutlin-3] + CO[C@@H]1[C@H](N(C)C(=O)c2ccccc2)C[C@H]2O[C@]1(C)n1c3ccccc3c3c4c(c5c6ccccc6n2c5c31)C(=O)NC4 [Midostaurin] (first compound 0.1 µM, partner dose 0.08 µM)",167,110,67.2,76,55.1,90,62,99.4,28.1,98.2,188,185,110,61.3,141,115
"CC(=O)O[C@@]12CO[C@@H]1C[C@H](O)[C@@]1(C)C(=O)[C@H](O)C3=C(C)[C@@H](OC(=O)[C@H](O)[C@@H](NC(=O)OC(C)(C)C)c4ccccc4)C[C@@](O)([C@@H](OC(=O)c4ccccc4)[C@H]21)C3(C)C [Docetaxel] + O=C(O)C(=O)Nc1sc2c(c1C(=O)O)CCNC2 [TCS401] (first compound 0.0001 µM, partner dose 1.66667 µM)",434,556,185,121,598,629,232,169,348,640,335,332,189,196,147,232
"CC(=O)O[C@@]12CO[C@@H]1C[C@H](O)[C@@]1(C)C(=O)[C@H](O)C3=C(C)[C@@H](OC(=O)[C@H](O)[C@@H](NC(=O)OC(C)(C)C)c4ccccc4)C[C@@](O)([C@@H](OC(=O)c4ccccc4)[C@H]21)C3(C)C [Docetaxel] + CN(NC(=O)CC(=O)NN(C)C(=S)c1ccccc1)C(=S)c1ccccc1 [STA4783] (first compound 0.0001 µM, partner dose 0.006 µM)",895,1130,378,59.6,311,273,517,203,713,245,572,523,224,188,177,562
"CCN(CC)CCNC(=O)c1c(C)[nH]c(/C=C2\C(=O)Nc3ccc(F)cc32)c1C [sunitinib] + CN(NC(=O)CC(=O)NN(C)C(=S)c1ccccc1)C(=S)c1ccccc1 [STA4783] (first compound 0.4 µM, partner dose 0.006 µM)",150,56.6,46.2,1010,660,52.2,75.1,272,189,211,145,84.6,153,129,78.6,59.5
"Cn1sc(=O)n(Cc2ccccc2)c1=O + O=c1cc(-c2cccc3c2Sc2ccccc2S3)oc(N2CCOCC2)c1 [KU55933] (first compound 0.4 µM, partner dose 1 µM)",102,121,38.1,98.7,114,249,35,79.4,165,157,77.2,104,98.6,40.8,78.9,95.8
"Cn1cnc2c(F)c(Nc3ccc(Br)cc3Cl)c(C(=O)NOCCO)cc21 [selumetinib] + CCCCCCCCCCCC1=C(O)C(=O)C=C(O)C1=O [Embelin] (first compound 0.015 µM, partner dose 1.2 µM)",182,92.2,127,54.5,271,125,192,58.9,54.8,106,69.1,193,113,95.8,131,69.9
"Cn1cnc2c(F)c(Nc3ccc(Br)cc3Cl)c(C(=O)NOCCO)cc21 [selumetinib] + CN(C)S(=O)(=O)c1ccc2c(c1)/C(=C/c1cc3c([nH]1)CCCC3)C(=O)N2 [SU6656] (first compound 0.015 µM, partner dose 0.4 µM)",353,37.9,63.4,94.4,107,67.8,92.6,73.2,17.2,288,313,63.7,128,36.3,112,97.2
"CCCCCCCCc1ccc(CCC(N)(CO)CO)cc1 [fingolimod] + Oc1cc(-c2nc(-c3ccccc3)[nH]c2-c2ccncc2)ccc1Cl [L779450] (first compound 2 µM, partner dose 0.2 µM)",239,115,176,36.8,239,49,181,155,91.5,234,210,117,105,104,118,157
"CC1(C)CCC(c2ccc(Cl)cc2)=C(CN2CCN(c3ccc(C(=O)NS(=O)(=O)c4ccc(N[C@H](CCN5CCOCC5)CSc5ccccc5)c(S(=O)(=O)C(F)(F)F)c4)cc3)CC2)C1 + OCCn1cc(-c2cnc3nnn(Cc4ccc5ncccc5c4)c3n2)cn1 [PF04217903] (first compound 0.4 µM, partner dose 1 µM)",293,138,147,184,64.3,137,93.1,45.8,62.9,75.1,195,399,395,34.6,113,55.8
"CC1(C)CCC(c2ccc(Cl)cc2)=C(CN2CCN(c3ccc(C(=O)NS(=O)(=O)c4ccc(N[C@H](CCN5CCOCC5)CSc5ccccc5)c(S(=O)(=O)C(F)(F)F)c4)cc3)CC2)C1 + CCN(CC)CCCCNc1ncc2cc(-c3cc(OC)cc(OC)c3)c(NC(=O)NC(C)(C)C)nc2n1 [PD173074] (first compound 0.4 µM, partner dose 0.1 µM)",40.5,596,299,259,70.8,140,22.9,103,162,117,380,109,811,41.9,122,168
"CC1(C)CCC(c2ccc(Cl)cc2)=C(CN2CCN(c3ccc(C(=O)NS(=O)(=O)c4ccc(N[C@H](CCN5CCOCC5)CSc5ccccc5)c(S(=O)(=O)C(F)(F)F)c4)cc3)CC2)C1 + N#Cc1c(O)c2c(-c3ccc(-c4ccccc4O)cc3)csc2[nH]c1=O [A769662] (first compound 0.4 µM, partner dose 2 µM)",203,365,199,131,94.9,67.9,75.4,117,171,118,108,158,1320,27.7,108,56.8
"Cn1cnc2c(F)c(Nc3ccc(Br)cc3Cl)c(C(=O)NOCCO)cc21 [selumetinib] + C[C@@H]1CCN(C(=O)CC#N)C[C@@H]1N(C)c1ncnc2[nH]ccc12 [CP690550] (first compound 0.015 µM, partner dose 1 µM)",232,153,150,74.8,280,82.3,171,29.8,252,386,159,87.9,85,73.7,108,56

# An excerpt of these results, with tabs.
Compound	cleaved PARP positive nuclei fraction (MZ2-MEL) [%]	cleaved PARP positive nuclei fraction (MeWo) [%]	cleaved PARP positive nuclei fraction (RPMI7951) [%]	cleaved PARP positive nuclei fraction (RVH-421) [%]	cleaved PARP positive nuclei fraction (SkMel28) [%]	cleaved PARP positive nuclei fraction (SkMel2) [%]	cleaved PARP positive nuclei fraction (SkMel30) [%]	cleaved PARP positive nuclei fraction (SkMel5) [%]	cleaved PARP positive nuclei fraction (UACC257) [%]	cleaved PARP positive nuclei fraction (UACC62) [%]	cleaved PARP positive nuclei fraction (WM115) [%]	cleaved PARP positive nuclei fraction (WM1716) [%]	cleaved PARP positive nuclei fraction (WM1745) [%]	cleaved PARP positive nuclei fraction (WM3526) [%]	cleaved PARP positive nuclei fraction (WM3619) [%]	cleaved PARP positive nuclei fraction (WM451Lu) [%]
NC1(c2ccc(-c3nc4ccn5c(=O)[nH]nc5c4cc3-c3ccccc3)cc2)CCC1 + COc1cc2c(Oc3ccc4[nH]c(C)cc4c3F)ncnc2cc1OCCCN1CCCC1 [cediranib] (first compound 0.4 µM, partner dose 0.4 µM)	58.9	63.4	35.6	128	36.8	94.8	76	79.8	101	178	104	111	96.6	35.6	90.8	448
COc1ccc(C2=N[C@@H](c3ccc(Cl)cc3)[C@@H](c3ccc(Cl)cc3)N2C(=O)N2CCNC(=O)C2)c(OC(C)C)c1 [Nutlin-3] + CO[C@@H]1[C@H](N(C)C(=O)c2ccccc2)C[C@H]2O[C@]1(C)n1c3ccccc3c3c4c(c5c6ccccc6n2c5c31)C(=O)NC4 [Midostaurin] (first compound 0.1 µM, partner dose 0.08 µM)	167	110	67.2	76	55.1	90	62	99.4	28.1	98.2	188	185	110	61.3	141	115
CC(=O)O[C@@]12CO[C@@H]1C[C@H](O)[C@@]1(C)C(=O)[C@H](O)C3=C(C)[C@@H](OC(=O)[C@H](O)[C@@H](NC(=O)OC(C)(C)C)c4ccccc4)C[C@@](O)([C@@H](OC(=O)c4ccccc4)[C@H]21)C3(C)C [Docetaxel] + O=C(O)C(=O)Nc1sc2c(c1C(=O)O)CCNC2 [TCS401] (first compound 0.0001 µM, partner dose 1.66667 µM)	434	556	185	121	598	629	232	169	348	640	335	332	189	196	147	232
